Measurements from “University of Dundee, Small-Polar-MMV Screening Library” (2021), ChEMBL document CHEMBL3988442.

The chains behind the UniProt entries cited, without tags or fusion partners. Residues count along the entry.
UniProt P9WNZ1, whole entry: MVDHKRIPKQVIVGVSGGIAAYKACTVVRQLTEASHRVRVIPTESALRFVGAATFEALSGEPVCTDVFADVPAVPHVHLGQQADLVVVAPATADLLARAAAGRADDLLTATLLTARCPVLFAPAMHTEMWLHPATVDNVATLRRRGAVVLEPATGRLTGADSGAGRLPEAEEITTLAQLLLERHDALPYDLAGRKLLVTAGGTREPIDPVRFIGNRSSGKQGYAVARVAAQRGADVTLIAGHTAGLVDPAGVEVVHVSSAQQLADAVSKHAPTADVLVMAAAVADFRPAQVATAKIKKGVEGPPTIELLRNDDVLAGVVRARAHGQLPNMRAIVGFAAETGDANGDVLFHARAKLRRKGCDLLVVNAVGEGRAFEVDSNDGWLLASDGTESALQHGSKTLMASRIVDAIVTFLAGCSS
UniProt P9WFT3, whole entry: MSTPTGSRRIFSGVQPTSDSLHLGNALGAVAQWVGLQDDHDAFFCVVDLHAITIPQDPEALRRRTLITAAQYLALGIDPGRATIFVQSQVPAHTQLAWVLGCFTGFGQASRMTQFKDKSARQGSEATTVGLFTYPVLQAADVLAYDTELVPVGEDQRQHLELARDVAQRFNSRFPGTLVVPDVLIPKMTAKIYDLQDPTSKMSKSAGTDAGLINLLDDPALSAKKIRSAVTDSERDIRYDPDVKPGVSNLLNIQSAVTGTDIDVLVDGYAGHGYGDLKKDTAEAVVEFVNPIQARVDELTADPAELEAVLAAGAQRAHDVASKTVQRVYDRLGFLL
UniProt P9WPC5, whole entry: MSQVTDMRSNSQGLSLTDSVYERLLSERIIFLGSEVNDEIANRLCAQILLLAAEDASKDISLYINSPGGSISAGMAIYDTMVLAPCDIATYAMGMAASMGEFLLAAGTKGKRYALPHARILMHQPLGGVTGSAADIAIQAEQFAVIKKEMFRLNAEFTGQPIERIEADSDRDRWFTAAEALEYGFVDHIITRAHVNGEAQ
UniProt P9WPC3, whole entry partner: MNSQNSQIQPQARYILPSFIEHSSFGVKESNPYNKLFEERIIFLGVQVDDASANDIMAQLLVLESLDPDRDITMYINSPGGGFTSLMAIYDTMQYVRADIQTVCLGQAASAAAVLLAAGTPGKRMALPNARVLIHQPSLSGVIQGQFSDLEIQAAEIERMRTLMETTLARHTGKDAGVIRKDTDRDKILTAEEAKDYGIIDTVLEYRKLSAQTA
UniProt A4I591, 1-473: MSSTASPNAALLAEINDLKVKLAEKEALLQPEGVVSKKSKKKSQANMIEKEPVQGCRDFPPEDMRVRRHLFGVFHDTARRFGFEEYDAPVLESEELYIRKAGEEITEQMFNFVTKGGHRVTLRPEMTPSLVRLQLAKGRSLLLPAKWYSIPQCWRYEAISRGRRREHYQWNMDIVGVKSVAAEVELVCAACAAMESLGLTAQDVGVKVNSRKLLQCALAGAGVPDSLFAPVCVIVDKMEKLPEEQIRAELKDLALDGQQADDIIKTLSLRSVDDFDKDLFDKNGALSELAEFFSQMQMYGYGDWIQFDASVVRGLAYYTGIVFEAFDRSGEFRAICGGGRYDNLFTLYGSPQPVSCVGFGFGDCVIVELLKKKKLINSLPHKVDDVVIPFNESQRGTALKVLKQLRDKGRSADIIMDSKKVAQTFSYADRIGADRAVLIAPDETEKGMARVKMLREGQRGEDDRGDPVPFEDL
UniProt Q4DA54, 1-478: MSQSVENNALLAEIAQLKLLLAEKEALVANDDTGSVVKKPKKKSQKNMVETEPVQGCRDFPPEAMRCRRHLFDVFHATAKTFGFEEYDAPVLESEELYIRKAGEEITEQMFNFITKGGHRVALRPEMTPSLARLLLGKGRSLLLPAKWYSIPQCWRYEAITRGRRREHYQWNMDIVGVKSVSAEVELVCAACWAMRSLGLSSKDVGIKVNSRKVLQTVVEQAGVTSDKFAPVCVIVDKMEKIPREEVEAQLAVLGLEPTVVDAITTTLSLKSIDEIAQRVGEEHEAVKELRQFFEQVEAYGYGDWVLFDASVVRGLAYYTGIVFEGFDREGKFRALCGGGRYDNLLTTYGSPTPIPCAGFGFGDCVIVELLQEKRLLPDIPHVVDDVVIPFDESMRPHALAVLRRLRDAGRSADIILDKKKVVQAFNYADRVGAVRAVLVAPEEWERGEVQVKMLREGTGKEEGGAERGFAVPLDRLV

A: 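Enzyme assay of CoaBC with a phosphate dye (Biomol Green) read at 650 nm. Target: Coenzyme A biosynthesis protein CoaBC, Mycobacterium tuberculosis (UniProt P9WNZ1). Compounds at 30 µM. Higher reads as stronger inhibition, judged from the few compounds that gave an IC50. Most strong results did not repeat in a second test. Size under these conditions: about 67,000 compounds, about 40 of them at 50% or above in at least one test.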
B: 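Enzyme assay of tryptophanyl-tRNA synthetase; the read-out is not stated. Target: Tryptophan-tRNA ligase, Mycobacterium tuberculosis (UniProt P9WFT3). Compounds at 10 µM. Direction is not recorded; retested compounds ran higher, which suggests that high means inhibition. Of about 65,000 compounds tested this way, about 64 (0.098%) reached 50% or more in at least one test.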
C: 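ClpP1P2, Mycobacterium tuberculosis (UniProt P9WPC5 and UniProt P9WPC3). Protease assay of ClpP1P2, read by the AMC dye that it sets free. Concentration: 50 µM. Higher reads as stronger inhibition, judged from the few compounds that gave an IC50. Most other retested compounds had strongly negative values. About 69,000 compounds were tested under these conditions; 0.015% (about 10) showed 50% or more at least once.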
D: 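Enzyme assay of histidyl-tRNA synthetase; the read-out is not stated. Target: Histidine-tRNA ligase, Leishmania infantum (UniProt A4I591). Compounds at 30 µM. Direction is inferred from retests: higher values go with stronger inhibition. The assay is labelled LdHisRS but filed under L. infantum. Of about 69,000 compounds tested this way, about 410 (0.6%) reached 50% or more in at least one test.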
E: 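Histidine-tRNA ligase, Trypanosoma cruzi CL Brener (UniProt Q4DA54). Enzyme assay of histidyl-tRNA synthetase; the read-out is not stated. Concentration: 30 µM. The record gives no direction; compounds that gave an IC50 in retests scored well above the rest, so higher reads as stronger inhibition. Size under these conditions: about 69,000 compounds, about 31 of them at 50% or above in at least one test.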

Values are the deposited “Percent Effect”, in %. How 0% and 100% were set is not recorded. Most values in the screen are low, and negative values occur. This is an unselected part of the compounds tested.

COc1cc(Cl)cc(C(=O)N2CCC3(CC2)CNC(=O)C3)c1 gave A: 0.615%; B: -0.9226%; C: -9.201%; D: 14.52%; E: 5.747%. For COC(=O)c1ccc2ccn(CC3CCCO3)c(=O)c2c1 (stereo not drawn) the result was A: 1.919%; B: 1.924%; C: -7.075%; D: 19.23%; E: 3.306%. For CC(Cn1ccnc1)NC(=O)NCCc1ccc2c(c1)OCCO2 (stereo not drawn) the result was A: -2.169%; B: -2.638%; C: 16.92%; D: -8.219%; E: 1.527%. CNc1nc(CNC(=O)Nc2ccccc2C(F)(F)F)cs1 gave A: 6.717%; B: -3.578%; C: -14.83%; D: 12.5%; E: 9.467%. For Fc1ccc(CN2CCCC2Cn2cccn2)c2ncccc12 (stereo not drawn) the result was A: 10.46%; B: -3.596%; C: 1.316%; D: 21.54%; E: 11.11%. COc1ccc(NC(=O)CCSc2ccc3nncn3n2)c(OC)c1 read A: 2.795%; B: 0.4823%; C: -11.02%; D: 13.04%; E: 1.98%. Cn1c(Cn2ccnc2)nnc1C1CCCN(CC(C)(C)C)C1 (stereo not drawn) gave A: 1.717%; B: -4.31%; C: 7.024%; D: 4.918%; E: 2.326%. For CCO[C@H]1CCN(S(=O)(=O)c2cn(C)cn2)[C@H]1Cc1ccccc1 the result was A: 0.9677%; B: -4.368%; C: -15.36%; D: 30.56%; E: 4.478%.

With O=C(CCN1CCCC(CO)(CC2CC2)C1)NC1CCCCC1 (stereo not drawn) the screen gave A: 3.181%; B: 2.079%; C: -13.42%; D: 24.39%; E: 7.212%. With Cc1cccc(CN2CCCCC23CCNC3)n1 (stereo not drawn) the screen gave A: 2.445%; B: -5.523%; C: 11.67%; D: 11.54%; E: 10.68%. Result for COc1ccc(OC)c(CNc2nnc(C(C)(C)C)o2)c1 was A: 0%; B: -1.748%; C: -5.732%; D: 9.89%; E: 4.95%. For COc1ccc(S(=O)(=O)N2CC(CC(=O)O)c3ccccc32)cc1 (stereo not drawn) the result was A: -1.882%; B: 1.341%; C: -9.655%; D: 3.39%; E: 2.439%. Cc1cnc(N2CCN(C(C)C(N)=O)CC2)nc1 (stereo not drawn) gave A: 1.911%; B: 2.352%; C: -11.65%; D: 6.218%; E: 0.5525%. For COc1ccc(CNC(=O)NC(C)(C(=O)O)c2ccco2)cc1F (stereo not drawn) the result was A: 2.738%; B: 10.9%; C: 2.117%; D: -0.8772%; E: 2.89%. Result for COc1ncccc1CNC(=O)N1CCC(CN2CCOCC2)CC1 was A: -0.3659%; B: 0.7947%; C: 5.898%; D: -10.99%; E: 3.012%.

Some entries from above, unchanged:

SMILES	A	B	C	D	E
Cn1c(Cn2ccnc2)nnc1C1CCCN(CC(C)(C)C)C1 (stereo not drawn)	1.717	-4.31	7.024	4.918	2.326
CC(Cn1ccnc1)NC(=O)NCCc1ccc2c(c1)OCCO2 (stereo not drawn)	-2.169	-2.638	16.92	-8.219	1.527